Measurements published in PubChem BioAssay AID192 (DTP/NCI, 2004).
The list shows only some results of the screen, not a fair sample: it gathers tests that were run many times, whatever their T/C, doses with no T/C, and many T/C values between a quarter and a half above the control. Further doses and runs are listed elsewhere. T/C is the treated group as % of the vehicle group. Some entries give survivors of the animals treated and no T/C: the source files T/C as zero there, which appears to mark a toxic dose or a test without result, not a measured value. Some doses without a T/C left all or most animals alive at the check, yet need not have been tolerated: survival well below the control is almost never listed, so the zero probably covers shortened survival too. Counts of survivors are from the toxicity check (mostly the fifth day) where no day follows; animals may have died later. Schedule codes are those of the source, taken here to give the interval after Q, in days (D) or hours (H), and the number of doses after X. Additions like (4×) stand for listed records that agree. Some structures stand for samples that the source files as different forms (salt, stereo form or complex); doses refer to the form tested. Some doses were run more than once; their values stand side by side, smallest first. Where survival is the endpoint, the PubChem record calls one and a half times the control and up active, and a quarter to a half above the control has no call in these data; cut-offs in other NCI protocols can differ.

Test system: BDF1 mice, B16 melanoma ip, median survival T/C
Experiment: NCI In Vivo Anticancer Drug Screen. Data for tumor model B16 Melanoma (intraperitoneal) in B6D2F1 (BDF1) mice
Settings: T/C endpoint: median survival time, higher T/C = longer survival
Summary of the method: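 Transplantable tumor model; survival or tumor size measured; reported as T/C, treated over vehicle control.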

[1] = dose: 200.0 mg/kg/injection, schedule: Q01DX009 (ip), vehicle: Klucel (hydroxypropylcellulose) (HPC)
[2] = dose: 100.0 mg/kg/injection, schedule: Q01DX009 (ip), vehicle: Klucel (hydroxypropylcellulose) (HPC)
[3] = dose: 400.0 mg/kg/injection, schedule: Q01DX009 (ip), vehicle: Klucel (hydroxypropylcellulose) (HPC)
[4] = dose: 400.0 mg/kg/injection, schedule: Q01DX009 (ip), vehicle: saline with Tween-80
[5] = dose: 100.0 mg/kg/injection, schedule: Q01DX009 (ip), vehicle: saline with Tween-80
[6] = dose: 50.0 mg/kg/injection, schedule: Q01DX009 (ip), vehicle: Klucel (hydroxypropylcellulose) (HPC)
[7] = dose: 200.0 mg/kg/injection, schedule: Q01DX009 (ip), vehicle: saline with Tween-80

Compound: CCCCNC(=O)Nc1cccc(C)c1C
- survivor count [1]: 7 of 10

Compound: CC(=O)CCN1C(=O)c2ccccc2C1=O
- survivor count [2]: 10 of 10
- T/C [3]: 144 % of control
- survivor count [3]: 6 of 10

Compound: NCC(O)c1ccc(O)c(O)c1 (stereo not drawn)
- survivor count (dose: 1.56 mg/kg/injection, schedule: Q01DX009 (ip), vehicle: saline): 10 of 10
- survivor count (dose: 3.12 mg/kg/injection, schedule: Q01DX009 (ip), vehicle: saline): 10 of 10
- survivor count (dose: 6.25 mg/kg/injection, schedule: Q01DX009 (ip), vehicle: saline): 5 of 10
- survivor count (dose: 12.5 mg/kg/injection, schedule: Q01DX009 (ip), vehicle: saline): 10 of 10
- survivor count (dose: 25.0 mg/kg/injection, schedule: Q01DX009 (ip), vehicle: saline): 1 of 10, 5 of 10, 6 of 10

Compound: CC(=O)CC(c1ccccc1)c1c(O)c2ccccc2oc1=O (stereo not drawn)
- survivor count (dose: 0.4 mg/kg/injection, schedule: Q01DX009 (ip), vehicle: saline with Tween-80): 9 of 10

Compound: CCCCCCCCCCCCCCCCCCOCC(CO)OC (stereo not drawn)
- survivor count [4]: 2 of 10

Compound: CC1C=CC(C(N)C(=O)O)O1 (stereo not drawn)
- survivor count (dose: 50.0 mg/kg/injection, schedule: Q01DX009 (ip), vehicle: saline): 6 of 6

Compound: CCCCCCCCCCCCCCCC[N+](C)(C)C
- survivor count (dose: 4.0 mg/kg/injection, schedule: Q04DX003 (ip), vehicle: saline): 10 of 10
- survivor count (dose: 8.0 mg/kg/injection, schedule: Q01DX009 (ip), vehicle: saline): 10 of 10
- survivor count (dose: 8.0 mg/kg/injection, schedule: Q04DX003 (ip), vehicle: saline): 10 of 10
- survivor count (dose: 11.0 mg/kg/injection, schedule: Q01DX009 (ip), vehicle: saline): 4 of 10
- survivor count (dose: 16.0 mg/kg/injection, schedule: Q01DX009 (ip), vehicle: saline): 10 of 10
- survivor count (dose: 16.0 mg/kg/injection, schedule: Q04DX003 (ip), vehicle: saline): 10 of 10
- survivor count (dose: 32.0 mg/kg/injection, schedule: Q01DX009 (ip), vehicle: saline): 8 of 10

Compound: O=C(O)c1ccccc1C(=O)Nc1cc(Cl)ccc1Cl
- survivor count [1]: 10 of 10

Compound: CSCCC(NC(=O)c1ccccc1)C(=O)O (stereo not drawn)
- survivor count [5]: 10 of 10

Compound: CCCN(CCC)c1ccc(/C=C/c2ccnc3ccccc23)cc1
- survivor count (dose: 43.0 mg/kg/injection, schedule: Q04DX003 (ip), vehicle: DMSO): 10 of 10
- survivor count (dose: 87.0 mg/kg/injection, schedule: Q04DX003 (ip), vehicle: DMSO): 10 of 10
- survivor count (dose: 175.0 mg/kg/injection, schedule: Q04DX003 (ip), vehicle: DMSO): 10 of 10

Compound: COCCCN1CCN(c2ccccc2OC)CC1
- survivor count (dose: 100.0 mg/kg/injection, schedule: Q01DX009 (ip), vehicle: saline): 3 of 10

Compound: O=C(NC(Cc1ccccc1)C(=O)CCl)OCc1ccccc1 (stereo not drawn)
- survivor count [6]: 7 of 10

Compound: CC/C(=C/C(F)(F)C(F)(F)C(F)(F)F)[N+](=O)[O-]
- survivor count [2]: 10 of 10

Compound: Nc1nc(-c2ccccc2)c(Br)c(=O)[nH]1
- T/C [5]: 137 % of control
- T/C [7]: 132 % of control

Compound: O=S(=O)(NC(=S)S)c1ccccc1
- survivor count (dose: 100.0 mg/kg/injection, schedule: Q01DX009 (ip), vehicle: water): 4 of 10
- survivor count (dose: 200.0 mg/kg/injection, schedule: Q01DX009 (ip), vehicle: water): 2 of 10
- survivor count (dose: 400.0 mg/kg/injection, schedule: Q01DX009 (ip), vehicle: water): 0 of 10

Compound: CC(=O)NC(Cc1cc(I)c(O)c(I)c1)C(=O)O (stereo not drawn)
- survivor count [6]: 9 of 10

Compound: CCCC(=O)Oc1ccc(/C=N/NC(N)=S)nc1
- T/C [5]: 130 % of control
- T/C [7]: 130 % of control
- survivor count [4]: 10 of 10 (2×)
- survivor count (dose: 600.0 mg/kg/injection, schedule: Q01DX009 (ip), vehicle: saline with Tween-80): 10 of 10

Compound: [Cl][Pt+2]([Cl])([Cl])[Cl].[NH-]C1CCCCC1.[NH-]C1CCCCC1
- survivor count (dose: 100.0 mg/kg/injection, schedule: Q01DX009 (ip), vehicle: other): 7 of 10
